Measurements taken from patent publication US20250011430A1.
These are yes or no findings as the source states them, for the method shown. Some binding calls cover weakened binding; strength is not graded here. For some assays here: Tags and fused reporters may be left off the sequences shown.

T1: B7H3-V1-V2-His (human) (UniProt Q5ZPR3)
T1 sequence (antigen fragment, looked up): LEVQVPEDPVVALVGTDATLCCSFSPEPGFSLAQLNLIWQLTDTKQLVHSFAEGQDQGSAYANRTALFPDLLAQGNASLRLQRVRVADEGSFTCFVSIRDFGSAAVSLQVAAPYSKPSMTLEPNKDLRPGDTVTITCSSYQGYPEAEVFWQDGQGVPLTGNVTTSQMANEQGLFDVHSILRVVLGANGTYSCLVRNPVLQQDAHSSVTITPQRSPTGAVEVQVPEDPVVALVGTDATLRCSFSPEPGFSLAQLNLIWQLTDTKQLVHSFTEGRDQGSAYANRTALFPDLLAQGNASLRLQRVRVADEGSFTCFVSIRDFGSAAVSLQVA

T2: B7H3 on cells (B7H3 on HEK293 cells; B7H3 expressed from plasmid on HEK-293T and QT6 cells) (human) (UniProt Q5ZPR3)
T2 sequence (looked up): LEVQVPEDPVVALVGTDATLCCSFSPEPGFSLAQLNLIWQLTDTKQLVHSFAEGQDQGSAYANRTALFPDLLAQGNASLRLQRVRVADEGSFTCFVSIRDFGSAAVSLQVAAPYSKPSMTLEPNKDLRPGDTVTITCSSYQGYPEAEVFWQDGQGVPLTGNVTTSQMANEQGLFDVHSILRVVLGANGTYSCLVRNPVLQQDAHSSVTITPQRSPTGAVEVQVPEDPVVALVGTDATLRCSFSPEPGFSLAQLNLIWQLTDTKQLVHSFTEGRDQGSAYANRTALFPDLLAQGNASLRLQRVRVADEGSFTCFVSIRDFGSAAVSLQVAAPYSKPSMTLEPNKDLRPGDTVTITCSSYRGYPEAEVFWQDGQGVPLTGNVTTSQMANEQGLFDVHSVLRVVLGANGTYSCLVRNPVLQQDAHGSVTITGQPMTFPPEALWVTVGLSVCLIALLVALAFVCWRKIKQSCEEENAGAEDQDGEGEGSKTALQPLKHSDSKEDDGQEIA


How the values were obtained:
B7H3-V1-V2-His (human) = molecular target: T1, B7H3-V1-V2-His (human); experiment: indirect ELISA, antigen coated at 0.2 µg/mL, antibody at 0.5 µg/mL, HRP-labelled secondary antibody; y axis without title
[1] = molecular target: T2, B7H3 on cells (B7H3 on HEK293 cells; B7H3 expressed from plasmid on HEK-293T and QT6 cells) (human); experiment: flow cytometry on HEK293 cells
[2] = molecular target: T2, B7H3 on cells (B7H3 on HEK293 cells; B7H3 expressed from plasmid on HEK-293T and QT6 cells) (human); experiment: flow cytometry on HEK293 cells, FITC-labelled secondary antibody

| binding (B7H3-V1-V2-His (human)) | Binder | binding [1] | binding [2] |
| --- | --- | --- | --- |
| binds | anti-B7H3 antibody 6F7 (antibody, V domains shown) VH: EVKLVESGGGLVQPGGSLRLSCATSGFTFTDYYMSWVRQPPGKALEWLGFIRNKANGYTTEYSASVKGRFTISSDDSQSILYLQMNTLRAEDSATYYCARDSHYRPFAYWGQGTLVTVSA VL: DIQMTQSPSSLTVTAGEKVTMSCKSSQSLLNSGNQNNYLTWYQQKPGQPPKLLIYLASTRDSGVPDRFTGSGSGTDFTLTISSVQAEDLAVYYCQNDYTYPLTFGAGTKLELKR | – | – |
| binds | anti-B7H3 antibody 23H1 (antibody, V domains shown) VH: EVKLVESGGGLVQPGGSLRLSCATSGFTFTDYYMSWVRQPPGKALEWLGFIRNKVNDYTTEYSVSVKGRFTISRDNSQTILYLQMNTLRAEDSATYYCARDSPYRPFAYWGQGTLVTVSA VL: DIVMTQSPSSLTVTAGENVTMSCKSSQTLLNNGNQKNFLTWYQQKPGQPPKLLIYLASTRESGVPDRFTGSGSGTDFTLTISSVQAEDLAVYYCQNDYTYPLTFGAGTKLELKR | – | – |
| binds | anti-B7H3 antibody 26B6 (antibody, V domains shown) VH: EVQLQQSGPELVKPGASVKISCKTSGYAFTEYTMHWVKQSQGKSLEWIGGINPNTGGTTYNQKFNGKATLTVDRSSSTAYMELRSLTSEDSAVYYCTRPYRDDGGFHWYFDVWGAGTAVTVSS VL: QIVLTQSPAVMSTSPGEKVTMTCSASSSVSYMQWYQQKSGTSPKRWIYDTSKLTSGVPARFSGSGSGTSYSLTISSMEAEDAATYYCQQWSSNPLTFGAGTKLELKR | – | – |

Further lines, the binder ahead of its results:

| Binder | binding (B7H3-V1-V2-His (human)) | binding [1] | binding [2] |
| --- | --- | --- | --- |
| anti-B7H3 antibody 2B8 (antibody, V domains shown) VH: QVQLQQSGPELVRPGVSVKISCKVSGYTFTDGAMHWVKRSHAKSLEWIGIINTNSGNTNYNQKFQGKATMTVDKSSSTAYMELARLTSEDSAIYYCARGVFYYGYGAWFAYWGQGTLVTVSA VL: DVQITQSPSYLTASPGETIIINCRASKTISNYLAWYQEKPGKTNKLLIYSGSTLQSGIPSRFSGSGSDTDFTLTISSLEPEDFAMYYCQQHHEYPLTFGAGTKLELKR | binds | – | – |
| humanized 6F7 with light chain variable region LV1 (antibody, V domains shown) VH: EVQLVESGGGLVQPGGSLRLSCAASGFTFTDYYMSWVRQAPGKGLEWVAFIRNKANGYTTEYSASVKGRFTISRDDSKNSLYLQMNSLRAEDTAVYYCARDSHYRPFAYWGQGTLVTVSS VL: DIVMTQSPLSLPVTPGEPASISCKSSQSLLNSGNQNNYLTWYLQKPGQSPQLLIYLASTRDSGVPDRFSGSGSGTDFTLKISRVEAEDVGVYYCQNDYTYPLTFGGGTKVEIKR | – | binds | binds |
| humanized 6F7 with light chain variable region LV2 (antibody, V domains shown) VH: EVQLVESGGGLVQPGGSLRLSCAASGFTFTDYYMSWVRQAPGKGLEWVAFIRNKANGYTTEYSASVKGRFTISRDDSKNSLYLQMNSLRAEDTAVYYCARDSHYRPFAYWGQGTLVTVSS VL: DIVMTQSPDSLAVSLGERATINCKSSQSLLNSGNQNNYLTWYQQKPGQPPKLLIYLASTRDSGVPDRFSGSGSGTDFTLTISSLQAEDVAVYYCQNDYTYPLTFGGGTKVEIKR | – | binds | binds |
